Assay results from US20250263443A1.
These are yes or no findings as the source states them, for the method shown. Some binding calls cover weakened binding; strength is not graded here.

Biological target: SA11 NSP3 fused to remnant residues of the 2A element (NSP3-2A) expressed by rSA11/NSP3-2A-NoV viruses (simian rotavirus A SA11) (UniProt P03536)
Experiment: self-association, summary of the 25 C gel/immunoblot experiment

SA11 NSP3 fused to remnant residues of the 2A element (NSP3-2A) expressed by rSA11/NSP3-2A-NoV viruses (from UniProt P03536 1-315)
binding: binds
